This is one part of the list.

The source of these data is PMC7819943, “Rice protein-binding microarrays: a tool to detect cis-acting elements near promoter regions in rice”.

The assay addresses T1, OsSMF1 (Oryza sativa, UniProt Q6ZLB0 1-436).
T1 sequence: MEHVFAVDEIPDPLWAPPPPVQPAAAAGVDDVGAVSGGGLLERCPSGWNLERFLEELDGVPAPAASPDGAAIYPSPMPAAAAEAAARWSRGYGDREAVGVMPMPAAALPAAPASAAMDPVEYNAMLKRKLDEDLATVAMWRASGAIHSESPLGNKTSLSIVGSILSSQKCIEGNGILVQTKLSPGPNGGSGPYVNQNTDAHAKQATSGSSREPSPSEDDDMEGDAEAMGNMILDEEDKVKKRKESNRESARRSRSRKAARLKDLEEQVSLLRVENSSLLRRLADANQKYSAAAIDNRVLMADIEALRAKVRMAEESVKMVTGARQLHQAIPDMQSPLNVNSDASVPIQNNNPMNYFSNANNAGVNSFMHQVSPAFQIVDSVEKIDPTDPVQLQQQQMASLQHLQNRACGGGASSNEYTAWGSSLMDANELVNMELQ
Nature of the assay: protein-binding microarray (RPBM); PBS, 2% BSA, 51.3 ng/ul salmon testes DNA, 50 uM zinc acetate, 200 nM TF, 25 C, 1 h; high values mean tight binding. Conditions: protein: recombinant; tags: N-terminal polyhistidine and DsRed monomer fusion (pET32a); chain copies: 2; label: CyDye5-dUTP incorporated in the synthesized complementary strand; 3' TTTTT single-stranded linker to array surface; dsDNA, one strand shown. Put shortly: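 The binding signal for each feature is its fluorescence intensity in arbitrary units. An Axon 4000B scanner was used to read a custom Agilent array that had been made double-stranded with Cy5-dUTP primer extension, blocked with 2% BSA, incubated at 25 °C for 1 h with 200 nM protein in PBS, 2% BSA, salmon testes DNA and 50 µM zinc acetate, and washed. The protein was an N-terminal polyhistidine–DsRed transcription factor fusion from E. coli BL21-CodonPlus, purified on Ni–NTA.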
Turning to “ACCGCCACCGCGACCGCCGCCGCAGCAAGCAGCGTCATCCCGGAGTCACCTAGTGCAG”, the binding signal is 3660 fluorescence intensity (a.u.).
The result for “TCATACACATACAACTTTTCAGTCACATCATTTACAATTTCGGAGTCACCTAGTGCAG” reads 29000 fluorescence intensity (a.u.).
As to “AAAACCCAATTAGTCATACATTATTACCACATCGTTTTACCGGAGTCACCTAGTGCAG”, the binding signal is 3700 fluorescence intensity (a.u.).
Regarding “GCGTGGTGTGTACTCCTGCTGTCCCTGCTGCGGCTACAGCCGGAGTCACCTAGTGCAG”, the binding signal was 4410 fluorescence intensity (a.u.).
Regarding “ATTTTGTCTTAGTTCTTGAAACGTCACACACGCTGATGGCCGGAGTCACCTAGTGCAG”, the binding signal was 3780 fluorescence intensity (a.u.).
The result for “AGGCGGAGACGAGTCGGCGGCGGCGGCGATGGCTGACCCCCGGAGTCACCTAGTGCAG” reads 24800 fluorescence intensity (a.u.); that for “CCGGCTGATGTGGCGGCACTGCTGCCTGCCTCACTAATCCCGGAGTCACCTAGTGCAG”, 8500 fluorescence intensity (a.u.).
In the case of “TCCCACCCTATTTCCGACGCCACGCTGTTGCCACATCAGACGGAGTCACCTAGTGCAG” it was 8980 fluorescence intensity (a.u.); in that of “CAACAAACGTCCCCGGTGATGATGTGGATCACCACAACAACGGAGTCACCTAGTGCAG”, 5060 fluorescence intensity (a.u.); in that of “TGTGCATGTCCACGTGTTATCGCTTTCCTCACAATTCATCCGGAGTCACCTAGTGCAG”, 12600 fluorescence intensity (a.u.).
On to “TATCATATCCGTGTGGCATGCCACATCAACGCCACGTAGGCGGAGTCACCTAGTGCAG”, for which the binding signal is 25500 fluorescence intensity (a.u.).
Turning to “TTCTTTCGTTAGTTCACCAAAGATGGGCATTTTACTAAGACGGAGTCACCTAGTGCAG”, the binding signal is 65000 fluorescence intensity (a.u.).
In the case of “GTTTCTTATTTTATGAATGGTATGAGTAAGAATATGTTTGCGGAGTCACCTAGTGCAG”, the binding signal is 3690 fluorescence intensity (a.u.).
Take “GTTCATACTACTGATGTCAGCATTGTCTTGCACTTTCCTACGGAGTCACCTAGTGCAG”: the binding signal was 16300 fluorescence intensity (a.u.).
“GTACAATCTGATGCTATGAGTAATATACAACTAATGCTACCGGAGTCACCTAGTGCAG”: the binding signal was 3220 fluorescence intensity (a.u.).
On to “GCCTCTGTGAGAGAACAACGTGGAAGGCCATTATTTCTTGCGGAGTCACCTAGTGCAG”, for which the binding signal is 19100 fluorescence intensity (a.u.).
Consider “CCCGACGTACTACGCGCCCACGCACGCACGACGGGACGGCCGGAGTCACCTAGTGCAG”, for which the binding signal was 4330 fluorescence intensity (a.u.).
On to “GGTAGGGTGGGGATGGGGTGTGTGCTAGCAATCCCGGTGGCGGAGTCACCTAGTGCAG”, for which the binding signal is 4380 fluorescence intensity (a.u.).
As to “TCATTTCCTCAGCAAGGTCATGTGCTAGTGCTTGTCACTGCGGAGTCACCTAGTGCAG”, the binding signal was 3460 fluorescence intensity (a.u.).
“GTTCCTCACCAGCCTCGTTGAGATCAGGTCTAAGGCGTCACGGAGTCACCTAGTGCAG”: the binding signal was 3870 fluorescence intensity (a.u.).
Consider “TCCATAGATTCTCCCTGCATTTTGTTCTTGGCAGACTATTCGGAGTCACCTAGTGCAG”, for which the binding signal is 3500 fluorescence intensity (a.u.).
“CAGGTAACTACAGTGTAACTTGTATATAAGTTTCACGTAACGGAGTCACCTAGTGCAG”: the binding signal was 34700 fluorescence intensity (a.u.).
Turning to “GCGTGCGGGCGCGGCCGGTGGAAAGGTGGGGCGGCCCAAACGGAGTCACCTAGTGCAG”, the binding signal was 20800 fluorescence intensity (a.u.).
